# Values from PubChem BioAssay AID1259286 (Sanger Institute, 2017)
# Assay: 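Kinome knock-downs lethal on their own or synergistic with anchor drugs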 (primary screen)
# Cell system: NCI-H630 human colorectal cancer cells
# Reagent: siRNA pool against human genes
# Challenge: anchor drugs BYL719 at 1 µM, cetuximab at 5 µg/ml or trametinib at 10 nM, or DMSO vehicle alone; exposure time not given
# Detection: 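Viability relative to non-targeting pool wells, averaged over replicates, with robust z-score for knock-down alone and a synergy score for each anchor drug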
# Reading the numbers: viability z-score, knock-down alone: higher = more viable cells, weaker knock-down effect; viability vs control, knock-down alone: higher = more viable cells; synergy score with trametinib: higher = stronger synergistic killing with trametinib; synergy score with BYL719: higher = stronger synergistic killing with BYL719; synergy score with cetuximab: higher = stronger synergistic killing with cetuximab
# Active means: 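Essential call: robust z-score of viability with siRNA alone lower than -3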
# Calls: active = essential when knocked down alone; inactive = not essential alone
# Shown is a random part of 794 reagents tested. Of all reagents, 17 (2.1%) are marked active. 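Calls use knock-down alone only; synergy above 0.15 marked separately; viability seems capped at control level; exposure time not given.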 Entries without a mark were called inactive. Not given: the amount of reagent, the time to read-out.
target,"viability z-score, knock-down alone","viability vs control, knock-down alone (fraction of control)",synergy score with trametinib,synergy score with BYL719,synergy score with cetuximab
TNK1 (tyrosine kinase non receptor 1),0.178,0.989,-0.0287,0.0535,0.0916
TRIM27 (tripartite motif containing 27),0.464,1,0.0224,-0.0814,-0.0584
DIS3 (DIS3 exosome endoribonuclease and 3'-5' exoribonuclease),-0.126,0.978,-0.0294,-0.0982,0.0505
ITPKC (inositol-trisphosphate 3-kinase C),-0.105,0.978,-0.0263,-0.101,-0.021
NRK (Nik related kinase),0.464,1,-0.0479,-0.00523,-0.0127
NME4 (NME/NM23 nucleoside diphosphate kinase 4),0.464,1,-0.00557,-0.0814,-0.013
CHKB (choline kinase beta),0.464,1,0.0237,-0.0434,-0.0264
NEK5 (NIMA related kinase 5),0.464,1,-0.0479,-0.0814,-0.0481
TNIK (TRAF2 and NCK interacting kinase),0.464,1,-0.0341,-0.0127,0.0474
STYK1 (STY kinase 1),-4.87 (active),0.798,-0.0122,-0.0984,-0.0269
TBX3 (T-box transcription factor 3),0.464,1,0.0133,-0.0814,0.05
CKS2 (CDC28 protein kinase regulatory subunit 2),0.464,1,0.00442,-0.0814,0.00622
CDK7 (cyclin dependent kinase 7),0.303,0.994,-0.0537,0.043,0.022
FN1 (fibronectin 1),-0.0409,0.981,-0.025,-0.0271,-0.0429
PRKCH (protein kinase C eta),-0.682,0.957,-0.0653,0.0251,0.102
EIF2AK3 (eukaryotic translation initiation factor 2 alpha kinase 3),0.45,0.999,-0.0286,-0.0491,0.0946
HASPIN (histone H3 associated protein kinase),0.464,1,-0.0479,-0.036,0.0308
CLK1 (CDC like kinase 1),0.464,1,-0.0479,-0.0814,-0.0927
MAP2K6 (mitogen-activated protein kinase kinase 6),0.464,1,-0.00479,0.00659,0.015
PAK3 (p21 (RAC1) activated kinase 3),0.464,1,0.00894,0.0647,0.069
PTPRU (protein tyrosine phosphatase receptor type U),0.314,0.994,-0.0533,0.0519,0.0793
MOK (MOK protein kinase),-0.909,0.948,-0.0973,0.0135,-0.018
PLK3 (polo like kinase 3),-2.38,0.892,-0.0365,-0.12,-0.14
COMMD3 (COMM domain containing 3),0.464,1,-0.0479,-0.0814,0.00544
GAK (cyclin G associated kinase),0.464,1,-0.0479,-0.0814,0.0682
MYO3A (myosin IIIA),0.035,0.984,-0.0449,0.00185,0.014
MYLK (myosin light chain kinase),0.464,1,0.0166,0.101,0.138
NEK9 (NIMA related kinase 9),0.464,1,-0.0479,-0.0814,-0.0367
MAP2K1 (mitogen-activated protein kinase kinase 1),0.445,0.999,-0.0347,-0.0556,0.0287
TBCK (TBC1 domain containing kinase),0.464,1,-0.0479,-0.0814,0.0275
COQ8B (coenzyme Q8B),0.461,1,-0.048,-0.0815,0.00521
EPHA1 (EPH receptor A1),0.464,1,-0.038,-0.0672,0.0739
SGK2 (serum/glucocorticoid regulated kinase 2),-0.506,0.963,-0.0828,-0.0299,0.0209
NLK (nemo like kinase),-1.36,0.931,-0.0717,-0.0218,0.0644
CPNE3 (copine 3),0.464,1,-0.0479,0.00653,0.0192
IP6K1 (inositol hexakisphosphate kinase 1),0.464,1,-0.0479,-0.0814,-0.0546
CDK19 (cyclin dependent kinase 19),0.00392,0.983,-0.0644,0.0737,0.0555
"PFKFB2 (6-phosphofructo-2-kinase/fructose-2,6-biphosphatase 2)",-0.754,0.954,-0.0218,-0.0203,-0.0297
CDKN1A (cyclin dependent kinase inhibitor 1A),0.464,1,-0.0479,-0.0576,-0.0502
EFNA4 (ephrin A4),-0.4,0.967,-0.0663,-0.0386,0.0235
"TEX14 (testis expressed 14, intercellular bridge forming factor)",0.464,1,-0.0479,-0.0399,0.0764
"PRAG1 (PEAK1 related, kinase-activating pseudokinase 1)",0.464,1,0.00736,0.0189,0.108
"CKMT1B (creatine kinase, mitochondrial 1B)",0.464,1,-0.0479,-0.0214,0.0951
NME6 (NME/NM23 nucleoside diphosphate kinase 6),-0.0209,0.982,-0.0176,-0.00475,0.0481
FCSK (fucose kinase),0.464,1,0.02,-0.0404,0.032
EPHA4 (EPH receptor A4),-0.808,0.952,-0.0492,0.076,-0.0632
DCLK3 (doublecortin like kinase 3),0.464,1,0.0082,-0.00312,0.026
MASTL (microtubule associated serine/threonine kinase like),0.464,1,-0.039,0.0666,-0.0151
AK5 (adenylate kinase 5),0.464,1,-0.00401,0.146,0.0672
AURKB (aurora kinase B),-3.23 (active),0.86,-0.0436,0.0261,-0.0762
EPHA5 (EPH receptor A5),0.464,1,-0.0479,-0.0814,0.0118
SRMS,-1.05,0.943,-0.0595,0.0545,0.0787
ADGRL2 (adhesion G protein-coupled receptor L2),0.464,1,-0.0457,0.0969,0.0115
MAPK8 (mitogen-activated protein kinase 8),0.464,1,-0.029,-0.0291,0.126
PHKB (phosphorylase kinase regulatory subunit beta),0.464,1,-0.027,-0.0814,0.000964
PNCK (pregnancy up-regulated nonubiquitous CaM kinase),0.464,1,-0.0479,-0.0367,0.0682
MAGI2,-1.32,0.932,-0.0922,-0.0126,-0.0623
MUSK (muscle associated receptor tyrosine kinase),0.464,1,-0.0479,0.0292,0.085
PKN2 (protein kinase N2),0.464,1,-0.0435,-0.0284,0.0816
BRD2 (bromodomain containing 2),0.464,1,-0.0479,-0.0578,0.06
STRADA (STE20 related adaptor alpha),-0.882,0.949,-0.0963,-0.0702,-0.0336
CAMK2N1 (calcium/calmodulin dependent protein kinase II inhibitor 1),0.464,1,-0.0479,-0.00975,0.0898
CAMKK1 (calcium/calmodulin dependent protein kinase kinase 1),0.431,0.999,-0.049,-0.0722,0.0329

Entries listed above called active, once more:
target,"viability z-score, knock-down alone","viability vs control, knock-down alone (fraction of control)",synergy score with trametinib,synergy score with BYL719,synergy score with cetuximab
STYK1 (STY kinase 1),-4.87 (active),0.798,-0.0122,-0.0984,-0.0269
AURKB (aurora kinase B),-3.23 (active),0.86,-0.0436,0.0261,-0.0762
